This is an account of results in the supplement of paper PMC12067093, “Discovery and optimisation of a covalent ligand for TRIM25 and its application to targeted protein ubiquitination” (Chemical Science, 2025).

Protein sequences, listed by entry. Tags and fused reporters are not part of them. Lines headed by an entry give the natural chain unless they say otherwise; changes in a name come on top.
UniProt Q9H0C8: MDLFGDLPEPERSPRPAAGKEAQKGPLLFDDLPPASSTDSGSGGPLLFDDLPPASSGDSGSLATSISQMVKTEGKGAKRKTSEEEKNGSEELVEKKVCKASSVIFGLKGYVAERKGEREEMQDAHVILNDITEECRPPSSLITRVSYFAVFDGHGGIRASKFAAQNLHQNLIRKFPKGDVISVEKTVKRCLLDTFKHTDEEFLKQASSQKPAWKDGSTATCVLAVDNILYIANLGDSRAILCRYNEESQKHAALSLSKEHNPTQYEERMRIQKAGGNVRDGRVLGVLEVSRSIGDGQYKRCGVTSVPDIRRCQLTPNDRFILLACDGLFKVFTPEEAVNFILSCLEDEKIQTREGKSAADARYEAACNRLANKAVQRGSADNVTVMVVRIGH
UniProt Q8WYA0: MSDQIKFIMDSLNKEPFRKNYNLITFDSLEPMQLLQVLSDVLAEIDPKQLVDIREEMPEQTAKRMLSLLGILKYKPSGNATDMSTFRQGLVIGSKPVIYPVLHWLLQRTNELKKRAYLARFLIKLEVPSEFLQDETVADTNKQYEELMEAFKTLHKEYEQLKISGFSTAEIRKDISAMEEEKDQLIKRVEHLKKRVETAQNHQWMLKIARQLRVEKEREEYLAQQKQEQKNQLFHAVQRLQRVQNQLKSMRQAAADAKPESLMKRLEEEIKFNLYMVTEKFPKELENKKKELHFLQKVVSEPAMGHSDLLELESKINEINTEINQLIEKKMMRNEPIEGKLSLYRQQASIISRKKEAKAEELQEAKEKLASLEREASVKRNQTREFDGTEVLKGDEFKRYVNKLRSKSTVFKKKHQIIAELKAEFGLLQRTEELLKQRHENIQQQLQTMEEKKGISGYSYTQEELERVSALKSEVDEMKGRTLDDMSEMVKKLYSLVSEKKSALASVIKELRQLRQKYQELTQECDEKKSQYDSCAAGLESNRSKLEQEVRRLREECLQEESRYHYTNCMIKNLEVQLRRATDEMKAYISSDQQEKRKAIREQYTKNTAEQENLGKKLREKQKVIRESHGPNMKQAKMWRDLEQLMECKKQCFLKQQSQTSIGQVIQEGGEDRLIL
UniProt P78318: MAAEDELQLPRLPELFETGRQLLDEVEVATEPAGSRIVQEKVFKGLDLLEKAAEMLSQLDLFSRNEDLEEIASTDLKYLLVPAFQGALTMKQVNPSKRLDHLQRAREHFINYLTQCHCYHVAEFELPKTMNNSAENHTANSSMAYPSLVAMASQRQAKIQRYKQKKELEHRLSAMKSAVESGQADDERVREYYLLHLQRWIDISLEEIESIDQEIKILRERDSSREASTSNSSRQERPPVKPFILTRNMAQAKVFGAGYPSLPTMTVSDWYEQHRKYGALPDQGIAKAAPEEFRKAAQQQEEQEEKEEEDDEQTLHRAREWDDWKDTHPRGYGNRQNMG
UniProt Q96F46, whole entry, looked up: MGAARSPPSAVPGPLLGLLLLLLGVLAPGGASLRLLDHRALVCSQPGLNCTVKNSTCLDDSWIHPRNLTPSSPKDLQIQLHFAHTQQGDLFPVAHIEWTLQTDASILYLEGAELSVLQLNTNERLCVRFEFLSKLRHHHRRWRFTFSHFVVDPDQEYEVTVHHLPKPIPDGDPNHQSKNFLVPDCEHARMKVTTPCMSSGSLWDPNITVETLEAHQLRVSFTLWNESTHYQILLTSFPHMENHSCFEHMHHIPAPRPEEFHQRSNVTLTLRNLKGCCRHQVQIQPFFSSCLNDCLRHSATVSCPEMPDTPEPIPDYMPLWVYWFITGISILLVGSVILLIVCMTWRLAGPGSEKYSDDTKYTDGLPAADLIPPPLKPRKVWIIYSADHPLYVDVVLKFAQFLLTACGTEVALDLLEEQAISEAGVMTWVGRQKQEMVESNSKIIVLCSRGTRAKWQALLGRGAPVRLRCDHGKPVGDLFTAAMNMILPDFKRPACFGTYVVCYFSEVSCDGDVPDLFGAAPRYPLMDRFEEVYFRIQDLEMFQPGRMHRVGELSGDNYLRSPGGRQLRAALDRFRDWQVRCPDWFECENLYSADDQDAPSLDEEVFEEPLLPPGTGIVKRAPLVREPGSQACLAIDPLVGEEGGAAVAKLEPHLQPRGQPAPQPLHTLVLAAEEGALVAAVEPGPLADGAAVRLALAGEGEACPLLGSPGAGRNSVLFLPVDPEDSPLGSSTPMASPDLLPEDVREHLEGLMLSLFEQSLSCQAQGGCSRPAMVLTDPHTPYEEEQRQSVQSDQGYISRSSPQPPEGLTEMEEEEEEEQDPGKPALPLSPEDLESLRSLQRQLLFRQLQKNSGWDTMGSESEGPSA
UniProt P09913: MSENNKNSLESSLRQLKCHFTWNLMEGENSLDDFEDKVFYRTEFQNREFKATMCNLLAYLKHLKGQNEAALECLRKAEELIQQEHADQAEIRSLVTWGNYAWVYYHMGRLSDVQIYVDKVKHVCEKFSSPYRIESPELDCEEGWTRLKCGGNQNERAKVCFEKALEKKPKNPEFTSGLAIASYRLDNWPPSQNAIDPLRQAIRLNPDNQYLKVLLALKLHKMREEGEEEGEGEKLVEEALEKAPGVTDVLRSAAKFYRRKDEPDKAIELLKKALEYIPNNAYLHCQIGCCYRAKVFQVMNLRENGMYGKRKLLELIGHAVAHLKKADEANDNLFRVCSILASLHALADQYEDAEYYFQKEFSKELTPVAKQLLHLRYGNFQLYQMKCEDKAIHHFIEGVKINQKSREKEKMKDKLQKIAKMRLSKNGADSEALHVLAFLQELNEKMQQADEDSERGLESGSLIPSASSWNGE
UniProt Q12905: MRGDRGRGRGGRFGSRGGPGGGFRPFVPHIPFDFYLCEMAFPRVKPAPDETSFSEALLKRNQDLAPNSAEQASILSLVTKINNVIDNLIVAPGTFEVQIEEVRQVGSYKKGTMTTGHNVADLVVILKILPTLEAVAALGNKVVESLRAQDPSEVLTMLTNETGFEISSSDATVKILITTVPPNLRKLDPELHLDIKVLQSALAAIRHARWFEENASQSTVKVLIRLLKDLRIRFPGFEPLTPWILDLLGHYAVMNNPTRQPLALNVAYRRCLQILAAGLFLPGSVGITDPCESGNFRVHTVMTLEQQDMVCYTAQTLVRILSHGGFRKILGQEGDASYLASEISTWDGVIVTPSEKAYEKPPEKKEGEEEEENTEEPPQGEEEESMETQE
UniProt Q92835: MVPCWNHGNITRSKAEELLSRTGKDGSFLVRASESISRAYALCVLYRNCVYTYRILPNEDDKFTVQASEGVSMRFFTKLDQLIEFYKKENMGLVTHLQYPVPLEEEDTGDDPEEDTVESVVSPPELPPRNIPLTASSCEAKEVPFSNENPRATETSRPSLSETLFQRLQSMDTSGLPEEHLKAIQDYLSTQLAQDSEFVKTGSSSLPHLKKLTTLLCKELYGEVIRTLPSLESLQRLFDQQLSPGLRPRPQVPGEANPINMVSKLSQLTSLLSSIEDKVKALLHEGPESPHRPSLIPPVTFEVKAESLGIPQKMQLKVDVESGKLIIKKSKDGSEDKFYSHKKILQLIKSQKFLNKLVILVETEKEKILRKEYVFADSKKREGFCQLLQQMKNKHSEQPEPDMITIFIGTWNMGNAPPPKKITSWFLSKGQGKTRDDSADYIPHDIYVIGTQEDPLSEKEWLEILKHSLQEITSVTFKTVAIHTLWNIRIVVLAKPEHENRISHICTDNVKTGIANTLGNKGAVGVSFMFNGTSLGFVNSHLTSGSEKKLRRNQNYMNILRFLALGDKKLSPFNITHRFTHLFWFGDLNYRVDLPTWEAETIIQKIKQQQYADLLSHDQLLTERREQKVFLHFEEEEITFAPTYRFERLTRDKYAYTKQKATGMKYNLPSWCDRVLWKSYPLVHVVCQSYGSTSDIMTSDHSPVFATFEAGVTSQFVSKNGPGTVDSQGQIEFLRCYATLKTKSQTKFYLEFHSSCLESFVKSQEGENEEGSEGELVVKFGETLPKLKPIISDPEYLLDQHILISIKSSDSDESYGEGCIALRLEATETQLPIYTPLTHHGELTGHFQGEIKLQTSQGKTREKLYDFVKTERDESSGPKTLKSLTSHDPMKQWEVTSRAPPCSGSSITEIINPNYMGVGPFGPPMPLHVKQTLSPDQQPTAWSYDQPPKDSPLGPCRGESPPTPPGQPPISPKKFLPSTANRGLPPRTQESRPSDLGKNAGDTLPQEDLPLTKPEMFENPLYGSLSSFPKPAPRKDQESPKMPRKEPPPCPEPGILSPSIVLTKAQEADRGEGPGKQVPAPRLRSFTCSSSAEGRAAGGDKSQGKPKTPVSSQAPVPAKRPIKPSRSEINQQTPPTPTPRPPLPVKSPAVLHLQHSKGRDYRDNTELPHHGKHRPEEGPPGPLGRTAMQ
UniProt Q13418: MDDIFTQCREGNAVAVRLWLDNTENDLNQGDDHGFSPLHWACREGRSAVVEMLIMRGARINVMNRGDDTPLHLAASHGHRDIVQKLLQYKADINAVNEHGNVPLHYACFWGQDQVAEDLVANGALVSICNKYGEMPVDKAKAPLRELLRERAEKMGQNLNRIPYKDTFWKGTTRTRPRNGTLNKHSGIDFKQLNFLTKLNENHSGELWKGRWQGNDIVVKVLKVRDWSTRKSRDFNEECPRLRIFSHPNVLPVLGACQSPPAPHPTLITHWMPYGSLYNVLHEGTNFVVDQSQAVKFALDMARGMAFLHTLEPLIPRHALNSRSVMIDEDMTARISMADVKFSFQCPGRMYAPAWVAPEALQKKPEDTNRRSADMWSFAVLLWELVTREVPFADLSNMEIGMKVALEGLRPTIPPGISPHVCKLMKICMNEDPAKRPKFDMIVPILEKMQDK
UniProt P50213: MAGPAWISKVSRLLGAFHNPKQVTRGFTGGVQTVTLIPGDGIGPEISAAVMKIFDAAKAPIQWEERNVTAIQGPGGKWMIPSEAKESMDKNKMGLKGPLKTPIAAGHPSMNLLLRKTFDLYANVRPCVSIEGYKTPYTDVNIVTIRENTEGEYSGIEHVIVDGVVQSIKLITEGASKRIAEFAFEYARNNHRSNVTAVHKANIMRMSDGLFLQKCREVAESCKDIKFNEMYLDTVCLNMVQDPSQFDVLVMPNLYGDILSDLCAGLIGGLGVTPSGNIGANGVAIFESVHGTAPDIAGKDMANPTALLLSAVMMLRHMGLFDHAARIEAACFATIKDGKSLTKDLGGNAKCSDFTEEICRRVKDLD
UniProt Q9Y6M1: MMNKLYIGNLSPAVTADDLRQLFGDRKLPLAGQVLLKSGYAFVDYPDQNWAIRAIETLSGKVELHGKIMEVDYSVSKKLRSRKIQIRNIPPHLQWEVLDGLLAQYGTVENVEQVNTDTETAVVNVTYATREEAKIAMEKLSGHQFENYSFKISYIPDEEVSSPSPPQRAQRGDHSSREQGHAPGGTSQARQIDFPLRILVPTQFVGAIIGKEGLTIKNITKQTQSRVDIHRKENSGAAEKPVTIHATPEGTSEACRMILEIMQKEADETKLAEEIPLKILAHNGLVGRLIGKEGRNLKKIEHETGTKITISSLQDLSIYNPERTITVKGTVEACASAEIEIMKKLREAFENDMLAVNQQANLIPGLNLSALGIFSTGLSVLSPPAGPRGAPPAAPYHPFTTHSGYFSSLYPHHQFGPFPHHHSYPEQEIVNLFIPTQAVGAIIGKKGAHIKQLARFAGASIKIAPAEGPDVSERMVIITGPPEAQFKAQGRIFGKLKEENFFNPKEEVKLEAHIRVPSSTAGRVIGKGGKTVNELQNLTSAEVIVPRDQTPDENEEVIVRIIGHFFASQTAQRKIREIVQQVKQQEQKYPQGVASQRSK
UniProt A1L0T0: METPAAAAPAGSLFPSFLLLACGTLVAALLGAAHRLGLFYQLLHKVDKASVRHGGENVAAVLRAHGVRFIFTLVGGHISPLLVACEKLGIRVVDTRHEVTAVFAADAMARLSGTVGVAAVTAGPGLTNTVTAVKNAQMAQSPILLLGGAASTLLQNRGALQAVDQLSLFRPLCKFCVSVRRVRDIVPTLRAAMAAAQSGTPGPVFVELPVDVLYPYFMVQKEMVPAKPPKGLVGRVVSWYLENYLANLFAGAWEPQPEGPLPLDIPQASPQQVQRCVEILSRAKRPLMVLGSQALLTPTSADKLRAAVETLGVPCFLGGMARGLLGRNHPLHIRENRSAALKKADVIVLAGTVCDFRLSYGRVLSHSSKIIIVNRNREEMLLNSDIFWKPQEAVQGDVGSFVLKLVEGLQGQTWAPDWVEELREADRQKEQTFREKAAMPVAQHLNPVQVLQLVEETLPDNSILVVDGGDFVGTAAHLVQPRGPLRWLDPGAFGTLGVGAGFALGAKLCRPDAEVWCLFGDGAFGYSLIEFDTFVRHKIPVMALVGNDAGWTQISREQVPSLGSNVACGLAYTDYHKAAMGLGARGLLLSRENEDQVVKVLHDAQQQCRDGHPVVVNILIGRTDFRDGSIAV
UniProt Q5T6J7: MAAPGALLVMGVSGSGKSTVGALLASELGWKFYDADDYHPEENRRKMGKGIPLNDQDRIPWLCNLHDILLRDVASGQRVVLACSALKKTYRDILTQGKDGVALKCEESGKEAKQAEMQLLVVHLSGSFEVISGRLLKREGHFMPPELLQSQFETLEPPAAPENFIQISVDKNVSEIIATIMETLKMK

The list shows a part of the results.
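Note: competitive profiling in live THP-1 cells: cysteine peptides tagged with an iodoacetamide desthiobiotin (IA-DTB) probe, intensity after compound treatment relative to DMSO-treated cells.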

Compound in the first test: Cc1cc(ccc1-c1ccccc1)C(=O)N1CCCN(CC1)C(=O)CCl [compound 10]
The test is described as follows: probe-labelled cysteine peptide fold change vs DMSO (competition) (log2 fold change); higher = less target engagement (more negative = stronger competition). To be noted: 10 µM; THP-1; incubation time: 4 h.
For “ILKAP_Q9H0C8_190_CLLDTFK (UniProt Q9H0C8)”, the “probe-labelled cysteine peptide fold change” value was 0.067.

As for “IFT81_Q8WYA0_557_LREECLQEESR (UniProt Q8WYA0)”, the “probe-labelled cysteine peptide fold change” value was 0.204.

With “IARS2_Q9NSE4_883_KPGLEEAVESACAMR (UniProt Q9NSE4)”, the “probe-labelled cysteine peptide fold change” value is 0.0507.

For the target “IARS_P41252_526_ISEVFDCWFESGSMPYAQVHYPFENK (UniProt P41252)”, the “probe-labelled cysteine peptide fold change” value is 0.25.

Turning to “INO80_Q9ULG1_13_DDGGCTELAK (UniProt Q9ULG1)”, the “probe-labelled cysteine peptide fold change” value is -0.128.

Turning to “IMPDH2_P12268_246_QLLCGAAIGTHEDDK (UniProt P12268)”, the “probe-labelled cysteine peptide fold change” value is 0.0104.

As for “IKBKG_Q9Y6K9_54_CLEENQELRDAIR (UniProt Q9Y6K9)”, the “probe-labelled cysteine peptide fold change” value is 0.059.

As for “IGBP1_P78318_116+118_EHFINYLTQCHCYHVAEFELPK (UniProt P78318)”, the “probe-labelled cysteine peptide fold change” value was determined as 0.129.

In the case of “IFT172_Q9UG01_1686_ALPCLITGYPILR (UniProt Q9UG01)”, the “probe-labelled cysteine peptide fold change” value was -0.241.

On to “ICAM3_P32942_407_ATCPQHLK (UniProt P32942)”, for which the “probe-labelled cysteine peptide fold change” value is -0.228.

Regarding “IGF2R_P11717_288_EEAGKLDFCDGHSPAVTITFVCPSER (UniProt P11717)”, the “probe-labelled cysteine peptide fold change” value was -0.0322.

With “IARS2_Q9NSE4_521_RPYWCISR (UniProt Q9NSE4)”, the “probe-labelled cysteine peptide fold change” value was -0.0125.

Turning to “IGF2R_P11717_731_ATLITFLCDR (UniProt P11717)”, the “probe-labelled cysteine peptide fold change” value is 0.14.

In the case of “IL17RA_Q96F46_185_NFLVPDCEHAR (UniProt Q96F46)”, the “probe-labelled cysteine peptide fold change” value was -0.118.

As to “IGF2R_P11717_1957_CDEDEDIGRPQVFSEVR (UniProt P11717)”, the “probe-labelled cysteine peptide fold change” value is -0.0517.

In the case of “IFIT2_P09913_140_IESPELDCEEGWTR (UniProt P09913)”, the “probe-labelled cysteine peptide fold change” value is -0.196.

As for “IMPACT_Q9P2X3_284_HINNCAR (UniProt Q9P2X3)”, the “probe-labelled cysteine peptide fold change” value is -0.174.

In the case of “ILF2_Q12905_37_PFVPHIPFDFYLCEMAFPR (UniProt Q12905)”, the “probe-labelled cysteine peptide fold change” value came to 0.0684.

For “INPP5D_Q92835_217_LTTLLCK (UniProt Q92835)”, the “probe-labelled cysteine peptide fold change” value turned out to be 0.165.

Turning to “IGF2R_P11717_1987_VVCPPK (UniProt P11717)”, the “probe-labelled cysteine peptide fold change” value is -0.205.

Consider “IK_Q13123_263_ADCPTMEAQTTLTTNDIVISK (UniProt Q13123)”, for which the “probe-labelled cysteine peptide fold change” value is -0.229.

Regarding “IGBP1_P78318_118_EHFINYLTQCHCYHVAEFELPK (UniProt P78318)”, the “probe-labelled cysteine peptide fold change” value is 0.0733.

Turning to “IGF2R_P11717_275_LDFCDGHSPAVTITFVCPSER (UniProt P11717)”, the “probe-labelled cysteine peptide fold change” value is -0.105.

For the target “IARS2_Q9NSE4_155_IHFVPGWDCHGLPIEIK (UniProt Q9NSE4)”, the “probe-labelled cysteine peptide fold change” value was determined as 0.0627.

For the target “INO80_Q9ULG1_765_DVENELSDKIEILMYCQLTSR (UniProt Q9ULG1)”, the “probe-labelled cysteine peptide fold change” value is 0.195.

In the case of “ILK_Q13418_239_DFNEECPR (UniProt Q13418)”, the “probe-labelled cysteine peptide fold change” value is -0.027.

With “IDH3A_P50213_351_CSDFTEEICR (UniProt P50213)”, the “probe-labelled cysteine peptide fold change” value was -0.172.

Regarding “IGF2BP2_Q9Y6M1_255_KENSGAAEKPVTIHATPEGTSEACR (UniProt Q9Y6M1)”, the “probe-labelled cysteine peptide fold change” value is -0.0974.

On to “IDH3A_P50213_331_IEAACFATIK (UniProt P50213)”, for which the “probe-labelled cysteine peptide fold change” value worked out at 0.303.

Consider “IKBKB_O14920_464_NNSCLSK (UniProt O14920)”, for which the “probe-labelled cysteine peptide fold change” value was -0.345.

Turning to “ILF2_Q12905_311_VHTVMTLEQQDMVCYTAQTLVR (UniProt Q12905)”, the “probe-labelled cysteine peptide fold change” value stood at 0.0654.

As for “IGF2R_P11717_1795_TSECDFVFEWETPVVCPDEVR (UniProt P11717)”, the “probe-labelled cysteine peptide fold change” value came to 0.141.

For “ILVBL_A1L0T0_354_ADVIVLAGTVCDFR (UniProt A1L0T0)”, the “probe-labelled cysteine peptide fold change” value is -0.0184.

Consider “IL1RAP_Q9NPH3_438_LCIFDRDSLPGGIVTDETLSFIQK (UniProt Q9NPH3)”, for which the “probe-labelled cysteine peptide fold change” value was -0.185.

As to “HUWE1_Q7Z6Z7_699_YICQKPSIQK (UniProt Q7Z6Z7)”, the “probe-labelled cysteine peptide fold change” value is -0.306.

For the target “IFT80_Q9P2H3_210_VDWNSVNDLILSAGEDCK (UniProt Q9P2H3)”, the “probe-labelled cysteine peptide fold change” value came out at 0.173.

As to “IFI16_Q16666_637_IIAIANYVCR (UniProt Q16666)”, the “probe-labelled cysteine peptide fold change” value was -0.11.

On to “IDNK_Q5T6J7_63_GIPLNDQDRIPWLCNLHDILLR (UniProt Q5T6J7)”, for which the “probe-labelled cysteine peptide fold change” value was -0.171.

The same test, now with this note: 50 µM; THP-1; incubation time: 4 h.
Take “ILKAP_Q9H0C8_190_CLLDTFK (UniProt Q9H0C8)”: the “probe-labelled cysteine peptide fold change” value is -0.0759.

Turning to “IFT81_Q8WYA0_557_LREECLQEESR (UniProt Q8WYA0)”, the “probe-labelled cysteine peptide fold change” value is 0.191.

For the target “IARS2_Q9NSE4_883_KPGLEEAVESACAMR (UniProt Q9NSE4)”, the “probe-labelled cysteine peptide fold change” value was 0.0705.

Turning to “IARS_P41252_526_ISEVFDCWFESGSMPYAQVHYPFENK (UniProt P41252)”, the “probe-labelled cysteine peptide fold change” value was determined as 0.642.

For “INO80_Q9ULG1_13_DDGGCTELAK (UniProt Q9ULG1)”, the “probe-labelled cysteine peptide fold change” value is -0.522.

Take “IMPDH2_P12268_246_QLLCGAAIGTHEDDK (UniProt P12268)”: the “probe-labelled cysteine peptide fold change” value is 0.208.

With “IKBKG_Q9Y6K9_54_CLEENQELRDAIR (UniProt Q9Y6K9)”, the “probe-labelled cysteine peptide fold change” value was -0.152.

“IGBP1_P78318_116+118_EHFINYLTQCHCYHVAEFELPK (UniProt P78318)”: the “probe-labelled cysteine peptide fold change” value is -0.739.

Regarding “IFT172_Q9UG01_1686_ALPCLITGYPILR (UniProt Q9UG01)”, the “probe-labelled cysteine peptide fold change” value is -0.159.

For the target “ICAM3_P32942_407_ATCPQHLK (UniProt P32942)”, the “probe-labelled cysteine peptide fold change” value is -0.234.

Regarding “IGF2R_P11717_288_EEAGKLDFCDGHSPAVTITFVCPSER (UniProt P11717)”, the “probe-labelled cysteine peptide fold change” value was -0.0881.

As to “IARS2_Q9NSE4_521_RPYWCISR (UniProt Q9NSE4)”, the “probe-labelled cysteine peptide fold change” value came out at 0.346.

Take “IGF2R_P11717_731_ATLITFLCDR (UniProt P11717)”: the “probe-labelled cysteine peptide fold change” value came to 0.00643.

“IL17RA_Q96F46_185_NFLVPDCEHAR (UniProt Q96F46)”: the “probe-labelled cysteine peptide fold change” value was determined as 0.217.

For the target “IGF2R_P11717_1957_CDEDEDIGRPQVFSEVR (UniProt P11717)”, the “probe-labelled cysteine peptide fold change” value was -0.135.

As for “IFIT2_P09913_140_IESPELDCEEGWTR (UniProt P09913)”, the “probe-labelled cysteine peptide fold change” value was -0.414.

As to “IMPACT_Q9P2X3_284_HINNCAR (UniProt Q9P2X3)”, the “probe-labelled cysteine peptide fold change” value was -0.283.

Consider “ILF2_Q12905_37_PFVPHIPFDFYLCEMAFPR (UniProt Q12905)”, for which the “probe-labelled cysteine peptide fold change” value turned out to be 0.31.

As to “INPP5D_Q92835_217_LTTLLCK (UniProt Q92835)”, the “probe-labelled cysteine peptide fold change” value was -0.134.

Take “IGF2R_P11717_1987_VVCPPK (UniProt P11717)”: the “probe-labelled cysteine peptide fold change” value is -0.0493.

As for “IK_Q13123_263_ADCPTMEAQTTLTTNDIVISK (UniProt Q13123)”, the “probe-labelled cysteine peptide fold change” value was found to be 0.11.

As for “IGBP1_P78318_118_EHFINYLTQCHCYHVAEFELPK (UniProt P78318)”, the “probe-labelled cysteine peptide fold change” value is -0.0679.

With “IGF2R_P11717_275_LDFCDGHSPAVTITFVCPSER (UniProt P11717)”, the “probe-labelled cysteine peptide fold change” value amounted to 0.197.

“IARS2_Q9NSE4_155_IHFVPGWDCHGLPIEIK (UniProt Q9NSE4)”: the “probe-labelled cysteine peptide fold change” value came to 0.0734.

As for “INO80_Q9ULG1_765_DVENELSDKIEILMYCQLTSR (UniProt Q9ULG1)”, the “probe-labelled cysteine peptide fold change” value worked out at 0.306.

On to “ILK_Q13418_239_DFNEECPR (UniProt Q13418)”, for which the “probe-labelled cysteine peptide fold change” value was -0.159.

Take “IDH3A_P50213_351_CSDFTEEICR (UniProt P50213)”: the “probe-labelled cysteine peptide fold change” value was found to be 0.135.

In the case of “IGF2BP2_Q9Y6M1_255_KENSGAAEKPVTIHATPEGTSEACR (UniProt Q9Y6M1)”, the “probe-labelled cysteine peptide fold change” value is -0.299.

In the case of “IDH3A_P50213_331_IEAACFATIK (UniProt P50213)”, the “probe-labelled cysteine peptide fold change” value amounted to 0.39.

Consider “IKBKB_O14920_464_NNSCLSK (UniProt O14920)”, for which the “probe-labelled cysteine peptide fold change” value was -0.953.

As for “ILF2_Q12905_311_VHTVMTLEQQDMVCYTAQTLVR (UniProt Q12905)”, the “probe-labelled cysteine peptide fold change” value worked out at 0.108.

Consider “IGF2R_P11717_1795_TSECDFVFEWETPVVCPDEVR (UniProt P11717)”, for which the “probe-labelled cysteine peptide fold change” value is -0.204.

Turning to “ILVBL_A1L0T0_354_ADVIVLAGTVCDFR (UniProt A1L0T0)”, the “probe-labelled cysteine peptide fold change” value is 0.266.

As for “IL1RAP_Q9NPH3_438_LCIFDRDSLPGGIVTDETLSFIQK (UniProt Q9NPH3)”, the “probe-labelled cysteine peptide fold change” value was 0.0397.

Turning to “HUWE1_Q7Z6Z7_699_YICQKPSIQK (UniProt Q7Z6Z7)”, the “probe-labelled cysteine peptide fold change” value was -0.513.

As for “IFT80_Q9P2H3_210_VDWNSVNDLILSAGEDCK (UniProt Q9P2H3)”, the “probe-labelled cysteine peptide fold change” value turned out to be 0.663.

For “IFI16_Q16666_637_IIAIANYVCR (UniProt Q16666)”, the “probe-labelled cysteine peptide fold change” value was -0.0451.

For the target “IDNK_Q5T6J7_63_GIPLNDQDRIPWLCNLHDILLR (UniProt Q5T6J7)”, the “probe-labelled cysteine peptide fold change” value was 0.128.
